Measurements taken from paper PMC9541320 (Chemmedchem, 2022).

Test: general procedure: Fmoc solid-phase peptide synthesis; Rink Amide AM LL resin (0.29 mmol/g); DIC/Oxyma
Conditions: whole synthesis, scale 300 mg resin

Substance | isolated mass [mg] | isolated yield [%]
PEPTIDE1{[dF].[dA].[dK].[dK].[dF].[dF].[dK].[dK].[dF].[dA].[dK].[dF].[dA].[dF].[dK].[am]}$$$$V2.0 | 25.5 | 23.0
PEPTIDE1{V.N.W.K.K.I.L.G.K.I.I.K.V.V.K.[am]}$$$$V2.0 | 41 | 20.2
PEPTIDE1{[dV].[dN].[dW].[dK].[dK].[dI].[dL].G.[dK].[dI].[dI].[dK].[dV].[dV].[dK].[am]}$$$$V2.0 | 26 | 17.0

Strings that start with PEPTIDE1 are HELM notation: dots part the residues, brackets hold end groups and non-standard residues.
